# Assay results published in PubChem BioAssay AID328 (DTP/NCI, 2004).
# The list shows only some results of the screen, not a fair sample: it gathers tests that were run many times, whatever their T/C, doses with no T/C, and many T/C values between a quarter and a half above the control. Other doses and runs of a compound stand elsewhere. T/C: endpoint of the treated group in % of that of the vehicle group. Some entries give survivors of the animals treated and no T/C: the source holds a T/C of zero for them, seemingly a mark for toxic or unscored doses. Some doses without a T/C left all or most animals alive at the check, yet need not have been tolerated: the source hardly ever lists a survival T/C far under the control, and the zero likely stands for such cases as well. Counts of survivors are from the toxicity check (mostly the fifth day) where no day follows; animals may have died later. Schedule codes are those of the source, read here as Q, the interval in days (D) or hours (H), X, the number of doses. Signs of the kind (2×) count equal records among those shown. Some entries hold several experiments; their values stand side by side, smallest first. For survival time, the PubChem record calls one and a half times the control and up active, and a quarter to a half above the control has no call in these data; cut-offs in other NCI protocols can differ. Some T/C values carry the count of animals alive at the toxicity check (mostly the fifth day); where none is given, no animal had died by that day.
# System: BDF1 mice, P388 leukemia ip, median survival T/C
# Assay: NCI In Vivo Anticancer Drug Screen. Data for tumor model P388 Leukemia (intraperitoneal) in B6D2F1 (BDF1) mice
# Details: T/C endpoint: median survival time, higher T/C = longer survival
# Procedure, shortened: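 Survival ratio, drug arm over vehicle arm, in mice with a transplanted tumour.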
# [1] = dose: 200.0 mg/kg/injection, schedule: Q01DX009 (ip), vehicle: saline
# [2] = dose: 100.0 mg/kg/injection, schedule: Q01DX009 (ip), vehicle: Klucel (hydroxypropylcellulose) (HPC)
# [3] = dose: 400.0 mg/kg/injection, schedule: Q01DX009 (ip), vehicle: Klucel (hydroxypropylcellulose) (HPC)
# [4] = dose: 200.0 mg/kg/injection, schedule: Q01DX009 (ip), vehicle: saline with Tween-80
# [5] = dose: 400.0 mg/kg/injection, schedule: Q04DX003 (ip), vehicle: saline
structure (smiles),measurement,setting,value
SCc1ccccn1,survivor count,"dose: 500.0 mg/kg/injection, schedule: Q01DX010 (ip), vehicle: carboxymethylcellulose (CMC)",0 of 6
CC1(C)N=C(N)N=C(N)N1c1ccc(CCCCc2ccc(S(=O)(=O)F)cc2)c(Cl)c1,T/C,"dose: 0.22 mg/kg/injection, schedule: Q01DX009 (ip), vehicle: saline",128 % of control
same,T/C,"dose: 0.33 mg/kg/injection, schedule: Q01DX009 (ip), vehicle: saline",130 % of control
same,T/C,"dose: 0.5 mg/kg/injection, schedule: Q01DX009 (ip), vehicle: saline",145 % of control
same,T/C,"dose: 0.66 mg/kg/injection, schedule: Q01DX009 (ip), vehicle: saline",146 % of control
same,survivor count,"dose: 4.4 mg/kg/injection, schedule: Q01DX009 (ip), vehicle: saline",6 of 6
same,survivor count,"dose: 6.6 mg/kg/injection, schedule: Q01DX009 (ip), vehicle: saline",6 of 6
same,survivor count,"dose: 10.0 mg/kg/injection, schedule: Q01DX009 (ip), vehicle: saline",6 of 6
same,survivor count,"dose: 15.0 mg/kg/injection, schedule: Q01DX009 (ip), vehicle: saline",6 of 6
same,T/C,"dose: 22.0 mg/kg/injection, schedule: Q04DX003 (ip), vehicle: saline",127 and 141 % of control
same,T/C,"dose: 25.0 mg/kg/injection, schedule: Q04DX003 (ip), vehicle: saline",127 % of control
same,T/C,"dose: 33.0 mg/kg/injection, schedule: Q04DX003 (ip), vehicle: saline",133 and 136 % of control
same,T/C,"dose: 50.0 mg/kg/injection, schedule: Q04DX003 (ip), vehicle: saline",136 and 145 % of control
same,survivor count,"dose: 75.0 mg/kg/injection, schedule: Q01DX009 (ip), vehicle: saline",6 of 6
same,T/C,"dose: 75.0 mg/kg/injection, schedule: Q04DX003 (ip), vehicle: saline",127 % of control
O=C1C=CC(=O)N1Cc1ccco1,survivor count,[1],6 of 6
O=c1[nH]c(-c2ccccc2)c(-c2ccccc2)[nH]1,survivor count,[2],6 of 6
same,survivor count,"dose: 200.0 mg/kg/injection, schedule: Q01DX009 (ip), vehicle: Klucel (hydroxypropylcellulose) (HPC)",6 of 6
same,survivor count,[3],2 of 6
COc1cc([C@@H]2c3cc4c(cc3[C@H](O)[C@H]3COC(=O)[C@H]23)OCO4)cc(OC)c1OC,T/C,"dose: 1.0 mg/kg/injection, schedule: Q01DX010 (ip), vehicle: carboxymethylcellulose (CMC)",133 % of control (2×)
same,T/C,"dose: 2.0 mg/kg/injection, schedule: Q01DX010 (ip), vehicle: carboxymethylcellulose (CMC)",142 % of control
same,T/C,"dose: 2.0 mg/kg/injection, schedule: Q01DX010 (ip), vehicle: steroid suspending solution",127 % of control
same,survivor count,"dose: 4.0 mg/kg/injection, schedule: Q01DX010 (ip), vehicle: carboxymethylcellulose (CMC)",4 of 6
same,T/C,"dose: 4.0 mg/kg/injection, schedule: Q01DX010 (ip), vehicle: steroid suspending solution",140 % of control
same,T/C,"dose: 4.5 mg/kg/injection, schedule: Q01DX001 (ip), vehicle: other",126 % of control
same,survivor count,"dose: 8.0 mg/kg/injection, schedule: Q01DX010 (ip), vehicle: carboxymethylcellulose (CMC)",0 of 6 and 3 of 6
same,T/C,"dose: 8.0 mg/kg/injection, schedule: Q01DX010 (ip), vehicle: steroid suspending solution",136 % of control
same,survivor count,"dose: 16.0 mg/kg/injection, schedule: Q01DX010 (ip), vehicle: carboxymethylcellulose (CMC)",1 of 6
same,T/C,"dose: 18.0 mg/kg/injection, schedule: Q01DX001 (ip), vehicle: other",126 % of control
same,survivor count,"dose: 18.0 mg/kg/injection, schedule: Q01DX010 (ip), vehicle: other",4 of 6
CN(C)c1ccc(/C=C/c2ccnc3ccccc23)c(O)c1,T/C,"dose: 200.0 mg/kg/injection, schedule: Q04DX003 (ip), vehicle: saline with Tween-80",126 % of control
same,T/C,"dose: 400.0 mg/kg/injection, schedule: Q04DX003 (ip), vehicle: saline with Tween-80",141 % of control
FC(F)(F)c1cc(CN(CCCl)CCCl)cc(C(F)(F)F)c1,T/C,"dose: 25.0 mg/kg/injection, schedule: Q01DX009 (ip), vehicle: other",149 % of control
same,T/C,"dose: 50.0 mg/kg/injection, schedule: Q01DX009 (ip), vehicle: Klucel (hydroxypropylcellulose) (HPC)",129 and 149 % of control
same,survivor count,"dose: 100.0 mg/kg/injection, schedule: Q01DX009 (ip), vehicle: other",5 of 6
CCC1(c2ccccc2)NC(=O)N(C)C1=O (stereo unspecified),survivor count,[3],0 of 6
NNC(=O)CCCCCCCCCCCCCCCO,survivor count,"dose: 100.0 mg/kg/injection, schedule: Q01DX009 (ip), vehicle: saline with Tween-80",6 of 6
same,survivor count,[4],6 of 6
COc1cccc(C(=O)C=C(C(F)(F)F)C(F)(F)F)c1,survivor count,"dose: 37.5 mg/kg/injection, schedule: Q01DX009 (ip), vehicle: saline with Tween-80",0 of 6
CN1CCC2(CC1)c1ccccc1-c1ccccc12,survivor count,[4],0 of 6
COc1cc2c(cc1OC)C(OC)N(C)c1c-2ccc2cc3c(cc12)OCO3 (stereo unspecified),survivor count,"dose: 0.59 mg/kg/injection, schedule: Q01DX009 (ip), vehicle: saline with Tween-80",2 of 6 (2×)
same,T/C,"dose: 0.88 mg/kg/injection, schedule: Q01DX009 (ip), vehicle: saline with Tween-80",129 % of control (2×)
same,T/C,"dose: 1.33 mg/kg/injection, schedule: Q01DX009 (ip), vehicle: saline with Tween-80",125 % of control (2×)
same,T/C,"dose: 1.6 mg/kg/injection, schedule: Q01DX009 (ip), vehicle: water",136 % of control
same,T/C,"dose: 2.0 mg/kg/injection, schedule: Q01DX009 (ip), vehicle: saline with Tween-80",127 % of control (2×)
same,T/C,"dose: 2.2 mg/kg/injection, schedule: Q04DX003 (ip), vehicle: saline with Tween-80",131 % of control (2×)
same,T/C,"dose: 3.3 mg/kg/injection, schedule: Q04DX003 (ip), vehicle: saline with Tween-80",136 % of control (2×)
same,T/C,"dose: 4.4 mg/kg/injection, schedule: Q04DX003 (ip), vehicle: other",145 % of control (2×)
same,T/C,"dose: 6.6 mg/kg/injection, schedule: Q04DX003 (ip), vehicle: other",145 % of control (2×)
same,survivor count,"dose: 20.0 mg/kg/injection, schedule: Q01DX009 (ip), vehicle: saline with Tween-80",6 of 6
same,T/C,"dose: 34.0 mg/kg/injection, schedule: Q01DX009 (ip), vehicle: saline with Tween-80",145 % of control
same,T/C,[2],130 % of control [4 of 6 alive] (2×)
same,T/C,"dose: 100.0 mg/kg/injection, schedule: Q04DX002 (ip), vehicle: Klucel (hydroxypropylcellulose) (HPC)",139 % of control
same,survivor count,"dose: 160.0 mg/kg/injection, schedule: Q04DX003 (ip), vehicle: saline",6 of 6
same,survivor count,"dose: 175.0 mg/kg/injection, schedule: Q01DX009 (ip), vehicle: Klucel (hydroxypropylcellulose) (HPC)",5 of 6 (2×)
same,survivor count,"dose: 240.0 mg/kg/injection, schedule: Q01DX009 (ip), vehicle: saline with Tween-80",4 of 6
same,survivor count,"dose: 350.0 mg/kg/injection, schedule: Q01DX009 (ip), vehicle: Klucel (hydroxypropylcellulose) (HPC)",4 of 6 (2×)
same,T/C,"dose: 400.0 mg/kg/injection, schedule: Q04DX002 (ip), vehicle: Klucel (hydroxypropylcellulose) (HPC)",146 % of control
O=C1CCCN1,survivor count,"dose: 200.0 mg/kg/injection, schedule: Q04DX003 (ip), vehicle: saline",6 of 6
CN(C)C(CCc1ccccc1)C(=O)O (stereo unspecified),survivor count,[5],6 of 6
CC(=O)C(C)(NCc1ccccc1)c1ccccc1 (stereo unspecified),survivor count,"dose: 135.0 mg/kg/injection, schedule: Q01DX001 (ip), vehicle: saline",6 of 6
same,T/C,"dose: 200.0 mg/kg/injection, schedule: Q01DX001 (ip), vehicle: saline",129 and 131 % of control
OC1OC(COC(c2ccccc2)(c2ccccc2)c2ccccc2)C(O)C(O)C1O (stereo unspecified),T/C,"dose: 50.0 mg/kg/injection, schedule: Q01DX009 (ip), vehicle: saline",132 % of control
same,survivor count,"dose: 160.0 mg/kg/injection, schedule: Q01DX009 (ip), vehicle: saline",2 of 6
same,survivor count,[1],5 of 6
same,survivor count,[5],2 of 6
